# Experimental data from PubChem BioAssay AID1487 (National Center for Advancing Translational Sciences (NCATS), 2009).
# The list shows a part of the results. These are further read-outs of the screen, such as a control signal, another cell line or another target. No call is given for them. The list favours compounds with an active or inconclusive main result. Words in brackets tell the shape of the fitted curve; partial curves, single points and poor fits give uncertain potencies.
# Test: qHTS Assay for Modulators of Lamin A Splicing
# Settings: HeLa LMNA splicing GFP/RFP minigene ratio, 48 h
# In short: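 S3 HeLa stable clones carrying a lamin A-EGFP splicing minigene plus DsRed2 were seeded at 600 cells/well in Opti-MEM with 2% FBS, pin-dosed and incubated 48 h at 37°C. Acumen cytometry (488 nm) gave the GFP/RFP total-intensity ratio.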
# [1] = measured here: RFP viability control channel
# [2] = measured here: GFP splicing reporter channel
SMILES,AC50 [1],AC50 [2]
Cc1ccc(NC(=O)CNC(=O)c2cccs2)cc1S(=O)(=O)Nc1ccc(Cl)cc1,"14.1 µM [rising, single point]",
CCOC(=O)C1(CCCc2ccccc2)CCN(C(=O)C2CCCO2)CC1 (configuration not stated),"0.00316 µM [falling, full curve, poor fit]","0.00355 µM [falling, full curve, poor fit]"
CCN(CC)CCOC(=O)c1ccc(NC(=O)Cn2ncc3c([nH]c4ccc(C)cc43)c2=O)cc1,"35.5 µM [falling, partial curve]","11.2 µM [falling, partial curve]"
Cc1ccccc1N1CCN(c2ccc(NC(=O)C3CCCCC3C(=O)O)cc2)CC1 (configuration not stated),"25.1 µM [rising, partial curve]","17.8 µM [rising, partial curve]"
Cc1cc(Oc2ccc(C#N)cc2)nc(NCc2ccccc2)n1,"3.98 µM [rising, single point]","3.16 µM [rising, partial curve]"
O=C(/C=C/Nc1ccc(Br)cc1F)c1ccccc1,"0.282 µM [rising, full curve]","0.794 µM [rising, partial curve]"
Fc1cccc(NC(=S)NNc2c3ccccc3nc3ccccc23)c1,"31.6 µM [rising, single point]",
CCN1CCN(c2ccc(N=Cc3ccccc3O)cc2)CC1,"12.6 µM [rising, partial curve]",
Cc1ccccc1CNC(=O)c1ccc(CSCc2ccccc2)cc1,"35.5 µM [rising, single point]","35.5 µM [rising, single point]"
Cc1[nH]n(-c2ccccc2)c(=O)c1C=Nc1cccc2cccnc12,"17.8 µM [rising, single point]",
CCN(CC)c1nc(SCCOC(=O)Nc2ccccc2)nc(N(CC)CC)n1,"35.5 µM [rising, single point]",
COc1ccc(N2C(=O)C(Cl)=C(Nc3ccccc3OC)C2=O)cc1,"17.8 µM [rising, single point]",
O=C1[C@@H]2[C@@H]3C[C@@H]([C@H]4ON=C(c5ccc(OCc6ccccc6)cc5)[C@@H]34)[C@@H]2C(=O)N1c1ccc2c(c1)OCO2,"6.31 µM [rising, single point]",
Clc1ccccc1CONc1ncnc2nonc12,"25.1 µM [rising, single point]","17.8 µM [rising, single point]"
Nc1ccc(OCc2ccco2)cc1,,"0.282 µM [falling, full curve, poor fit]"
COC(=O)c1cc(NC(=O)CN(c2cccc(OC)c2)S(=O)(=O)c2ccccc2)ccc1Cl,"22.4 µM [rising, partial curve, poor fit]",
Cc1cc(OCC(=O)O/N=C(\N)c2ccccc2)cc(C)c1Cl,"20 µM [rising, single point]",
CCCn1c2ccccc2c2cnn(CC(=O)NCCc3ccc(OCC)cc3)c(=O)c21,"15.8 µM [falling, single point]","22.4 µM [falling, partial curve]"
CC(C)CNC(=S)N1CCN(C(c2ccccc2)c2ccccc2)CC1,"35.5 µM [rising, single point]","35.5 µM [rising, single point]"
Cc1ccc(Cl)cc1N1CCN(C(=O)Cn2ccc3ccccc3c2=O)CC1,"15.8 µM [rising, partial curve]","11.2 µM [rising, partial curve, poor fit]"
c1ccc(Sc2nc(N3CCCCC3)nc(N3CCCCC3)n2)nc1,,"22.4 µM [rising, single point]"
Cc1cccc(S(=O)(=O)NCCC(=O)OCC(=O)Nc2ccc(C#N)cc2)c1,"0.0891 µM [rising, full curve, poor fit]","0.0794 µM [rising, full curve, poor fit]"
Cc1cccc2sc(NNC(=O)c3ccc4c(c3)OCCO4)nc12,"17.8 µM [rising, single point]","0.794 µM [falling, single point]"
C/C(=N\NC(=O)CSCc1ccccc1Cl)c1cccc(NC(=O)c2ccccc2)c1,"2 µM [rising, full curve]",
CC1CC(C)CN(C(=O)c2cccc(S(=O)(=O)Nc3cc(C(F)(F)F)ccc3Cl)c2)C1 (configuration not stated),"12.6 µM [rising, partial curve]",
CCN(Cc1cc(=O)n2ccsc2n1)c1cccc2ccccc12,"31.6 µM [rising, single point]",
Cc1cc(C)nc(SCc2cc(=O)c(OC(=O)c3ccc(S(=O)(=O)N4CCCC4)cc3)co2)n1,,"0.282 µM [rising, partial curve, poor fit]"
Cc1ccc(S(=O)(=O)Cn2nnnc2C(CC(C)C)N2CCN(C(=O)c3ccco3)CC2)cc1 (configuration not stated),,"12.6 µM [rising, single point]"

# Quoted from the listing.
# AC50 [2], `CCOC(=O)C1(CCCc2ccccc2)CCN(C(=O)C2CCCO2)CC1` (configuration not stated) reads 0.00355 µM [falling, full curve, poor fit]
# AC50 [2], `Cc1cc(C)nc(SCc2cc(=O)c(OC(=O)c3ccc(S(=O)(=O)N4CCCC4)cc3)co2)n1` reads 0.282 µM [rising, partial curve, poor fit]

# Following part.

SMILES,AC50 [1],AC50 [2]
O=C(CNC(=O)c1ccccc1)N/N=C/c1cccs1,"1.58 µM [falling, partial curve, poor fit]",
OC(CNCCCN1CCCCC1)COc1ccccc1 (configuration not stated),"28.2 µM [rising, single point]",
COc1ccc(F)cc1S(=O)(=O)NCCc1c(C)[nH]c2c(Cl)cccc12,"20 µM [falling, partial curve, poor fit]","31.6 µM [falling, partial curve, poor fit]"
O=c1[nH]n(CC2COC3(CCCCC3)O2)c(=O)c2ccccc12 (configuration not stated),"11.2 µM [rising, partial curve]","8.91 µM [rising, partial curve]"
CC(=O)N1CCN(c2ccc(NC(=O)c3ccc(Br)o3)cc2Cl)CC1,,"35.5 µM [falling, partial curve]"
CCCNC(=S)Nc1ccc(Cl)cc1Cl,"15.8 µM [rising, single point]","31.6 µM [rising, single point]"
S=C(S)OC1CC2CC1C1CCCC21 (configuration not stated),"11.2 µM [rising, partial curve, poor fit]","17.8 µM [falling, single point]"
O=C(Nc1ccc(Cl)cc1)N1CCN(c2ncccn2)CC1,"3.98 µM [falling, full curve, poor fit]","3.16 µM [falling, full curve, poor fit]"
Cc1ccc(Cl)cc1N1CCN(C(=O)COc2ccc(S(=O)(=O)NC(C)C)cc2)CC1,"3.98 µM [rising, single point]",
COc1ccc(C(c2nnnn2Cc2cccs2)N2CCN(c3ccc(F)cc3)CC2)cc1OC (configuration not stated),"17.8 µM [rising, single point]",
COc1ccc(/C=N/S(=O)(=O)c2ccccc2)cc1OC,"0.1 µM [rising, full curve, poor fit]","0.1 µM [rising, full curve]"
Cc1nc(C)c(-c2csc(Nc3cccc(O)c3)n2)s1,,"14.1 µM [rising, partial curve, poor fit]"
Cn1c(NCCCN2CCOCC2)nc2c1c(=O)n(Cc1ccc(Cl)cc1Cl)c(=O)n2C,"8.91 µM [rising, partial curve, poor fit]",
Cc1ccc(C(=O)N/N=C/C2=Cc3ccccc3OC2C)cc1 (configuration not stated),"0.00447 µM [rising, full curve, poor fit]",
CCOC(=O)N1CCN(C(=O)COc2ccc(S(=O)(=O)Nc3ccc(OCC)cc3)cc2)CC1,"12.6 µM [rising, partial curve]","10 µM [rising, partial curve]"
Cc1ccc(Cl)cc1N1CCN(C(=O)c2cccc3c(=O)c(C)c(-c4ccccc4)oc23)CC1,"5.62 µM [rising, single point]","5.62 µM [rising, single point]"
COc1cc(NC(=O)CCc2nc(-c3cccs3)no2)cc(OC)c1OC,"35.5 µM [rising, single point]","3.16 µM [rising, partial curve, poor fit]"
CCc1ccc(NC(=O)Cn2c(SC)nc3ccccc32)cc1,"12.6 µM [rising, partial curve]",
O=C(Nc1ncc2c(n1)-c1ccccc1CC2)C1CC1,"0.02 µM [falling, full curve, poor fit]",
Cc1c(/C=N/NC(=O)C(NC(=O)c2ccc3c(c2)OCO3)C(C)C)c2ccccc2n1C (configuration not stated),"11.2 µM [rising, partial curve]",
CCC(Oc1ccccc1)C(=O)Nc1ccsc1C(=O)OC (configuration not stated),"11.2 µM [rising, partial curve]","11.2 µM [rising, partial curve, poor fit]"
Cc1ccc(CNC(=O)c2cc3c(C)nc4ccccc4c3o2)cc1,"5.01 µM [rising, full curve]",
Cc1cccc(N2CCN(C3=NC(=O)C(=C4CCCCC4)S3)CC2)c1,"17.8 µM [rising, partial curve]",
O=C(c1cccs1)N1CCc2c([nH]c3ccccc23)C1c1ccc(Cl)cc1 (configuration not stated),"14.1 µM [rising, single point]",
COc1ccc(N2CCN(Cc3cc(=O)oc4ccc5ccccc5c34)CC2)cc1,,"2.51 µM [rising, full curve, poor fit]"
Cc1ccc2c(c1)N(CC(=O)N1CCN(c3nc4ccccc4s3)CC1)C(=O)C(C)O2 (configuration not stated),"35.5 µM [rising, single point]",
O=C(/C=C/c1ccc([N+](=O)[O-])cc1)NCCc1ccc(F)cc1,"25.1 µM [rising, single point]",
